From the supplement of paper PMC10849652
The other results are listed elsewhere or left out.

Amino acid sequences for entries named in this document (tags omitted). A change or cut given only in a name is not applied to a line headed by its entry.
UniProt Q9BQ67, whole entry, looked up: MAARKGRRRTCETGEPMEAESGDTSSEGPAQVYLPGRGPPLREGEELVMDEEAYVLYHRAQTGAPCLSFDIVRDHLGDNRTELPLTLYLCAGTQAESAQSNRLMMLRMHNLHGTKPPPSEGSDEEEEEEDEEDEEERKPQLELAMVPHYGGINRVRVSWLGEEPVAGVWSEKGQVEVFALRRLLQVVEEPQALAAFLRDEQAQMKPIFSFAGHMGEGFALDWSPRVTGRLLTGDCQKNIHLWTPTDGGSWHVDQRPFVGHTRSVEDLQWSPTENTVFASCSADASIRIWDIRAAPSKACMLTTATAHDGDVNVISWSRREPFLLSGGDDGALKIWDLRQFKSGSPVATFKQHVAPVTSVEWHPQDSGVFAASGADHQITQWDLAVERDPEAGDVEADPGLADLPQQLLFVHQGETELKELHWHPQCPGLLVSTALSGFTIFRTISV
UniProt P29992, whole entry, looked up: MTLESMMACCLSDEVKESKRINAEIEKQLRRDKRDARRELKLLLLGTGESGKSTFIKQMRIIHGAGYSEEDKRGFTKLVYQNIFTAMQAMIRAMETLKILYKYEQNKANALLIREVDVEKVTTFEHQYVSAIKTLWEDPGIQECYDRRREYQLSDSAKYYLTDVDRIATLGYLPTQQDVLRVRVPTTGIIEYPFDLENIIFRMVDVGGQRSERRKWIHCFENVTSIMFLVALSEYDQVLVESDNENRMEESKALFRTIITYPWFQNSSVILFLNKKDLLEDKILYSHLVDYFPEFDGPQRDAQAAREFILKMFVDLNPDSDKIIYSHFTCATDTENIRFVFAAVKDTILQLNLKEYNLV
UniProt Q8IW92: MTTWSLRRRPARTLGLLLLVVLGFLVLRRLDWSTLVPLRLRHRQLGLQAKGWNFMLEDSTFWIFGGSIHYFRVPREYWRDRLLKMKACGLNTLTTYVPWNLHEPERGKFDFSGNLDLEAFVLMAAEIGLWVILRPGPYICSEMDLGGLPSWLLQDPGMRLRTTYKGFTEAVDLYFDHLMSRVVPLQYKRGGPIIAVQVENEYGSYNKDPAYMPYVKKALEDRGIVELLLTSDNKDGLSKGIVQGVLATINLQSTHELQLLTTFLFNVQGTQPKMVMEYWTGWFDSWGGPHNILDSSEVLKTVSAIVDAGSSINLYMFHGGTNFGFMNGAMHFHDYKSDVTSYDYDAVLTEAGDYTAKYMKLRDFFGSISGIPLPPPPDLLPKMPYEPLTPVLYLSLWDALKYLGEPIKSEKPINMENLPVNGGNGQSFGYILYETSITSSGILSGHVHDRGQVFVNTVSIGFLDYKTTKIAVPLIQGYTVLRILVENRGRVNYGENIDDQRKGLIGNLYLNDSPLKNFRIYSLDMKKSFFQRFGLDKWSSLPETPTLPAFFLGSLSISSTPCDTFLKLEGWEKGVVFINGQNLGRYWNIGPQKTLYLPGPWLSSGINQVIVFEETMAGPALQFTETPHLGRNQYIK
UniProt Q8N954: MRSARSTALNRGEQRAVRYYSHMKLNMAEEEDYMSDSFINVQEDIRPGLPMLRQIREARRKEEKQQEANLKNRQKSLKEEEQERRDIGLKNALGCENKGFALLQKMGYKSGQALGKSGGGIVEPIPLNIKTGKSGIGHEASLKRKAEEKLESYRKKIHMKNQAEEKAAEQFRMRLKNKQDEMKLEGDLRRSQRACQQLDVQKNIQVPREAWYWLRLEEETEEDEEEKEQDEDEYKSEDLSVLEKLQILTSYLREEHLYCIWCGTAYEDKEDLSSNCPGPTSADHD
UniProt Q7Z5G4, whole entry, looked up: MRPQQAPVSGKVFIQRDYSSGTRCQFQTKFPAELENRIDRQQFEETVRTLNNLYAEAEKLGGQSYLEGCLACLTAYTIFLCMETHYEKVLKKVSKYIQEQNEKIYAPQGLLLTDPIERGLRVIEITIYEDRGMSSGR
UniProt P13224: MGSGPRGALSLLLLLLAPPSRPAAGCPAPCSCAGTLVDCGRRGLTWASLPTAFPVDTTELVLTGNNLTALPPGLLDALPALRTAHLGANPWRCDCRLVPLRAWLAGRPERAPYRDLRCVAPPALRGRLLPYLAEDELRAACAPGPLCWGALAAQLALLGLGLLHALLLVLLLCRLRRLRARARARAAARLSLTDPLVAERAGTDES
UniProt Q9UBQ7: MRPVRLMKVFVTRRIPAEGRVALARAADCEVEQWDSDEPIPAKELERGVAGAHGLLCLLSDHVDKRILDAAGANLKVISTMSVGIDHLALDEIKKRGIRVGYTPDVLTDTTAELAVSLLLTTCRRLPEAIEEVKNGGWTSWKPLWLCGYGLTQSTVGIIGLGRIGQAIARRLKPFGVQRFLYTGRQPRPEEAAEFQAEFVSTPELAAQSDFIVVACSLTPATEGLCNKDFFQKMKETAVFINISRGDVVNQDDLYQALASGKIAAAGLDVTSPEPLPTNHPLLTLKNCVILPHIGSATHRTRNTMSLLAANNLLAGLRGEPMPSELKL
UniProt Q9Y5P6: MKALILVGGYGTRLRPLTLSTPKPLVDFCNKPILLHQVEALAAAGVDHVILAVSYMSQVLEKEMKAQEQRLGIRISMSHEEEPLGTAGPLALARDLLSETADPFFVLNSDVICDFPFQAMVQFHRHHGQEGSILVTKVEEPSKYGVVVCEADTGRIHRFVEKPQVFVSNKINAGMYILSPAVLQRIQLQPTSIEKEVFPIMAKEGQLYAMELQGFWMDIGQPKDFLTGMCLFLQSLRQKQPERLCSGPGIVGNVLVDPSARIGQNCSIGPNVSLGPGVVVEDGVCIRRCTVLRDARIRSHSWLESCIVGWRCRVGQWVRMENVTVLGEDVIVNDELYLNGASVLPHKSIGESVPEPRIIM
UniProt Q8IXQ4: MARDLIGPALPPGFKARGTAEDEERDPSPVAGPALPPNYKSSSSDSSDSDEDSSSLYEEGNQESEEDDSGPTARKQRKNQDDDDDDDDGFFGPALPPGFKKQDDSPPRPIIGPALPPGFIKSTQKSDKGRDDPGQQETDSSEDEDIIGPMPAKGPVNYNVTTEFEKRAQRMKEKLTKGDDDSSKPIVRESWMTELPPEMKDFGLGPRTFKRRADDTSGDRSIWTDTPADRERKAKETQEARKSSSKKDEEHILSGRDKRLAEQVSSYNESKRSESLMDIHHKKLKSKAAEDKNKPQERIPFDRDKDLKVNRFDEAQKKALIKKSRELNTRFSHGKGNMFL
UniProt Q3T906: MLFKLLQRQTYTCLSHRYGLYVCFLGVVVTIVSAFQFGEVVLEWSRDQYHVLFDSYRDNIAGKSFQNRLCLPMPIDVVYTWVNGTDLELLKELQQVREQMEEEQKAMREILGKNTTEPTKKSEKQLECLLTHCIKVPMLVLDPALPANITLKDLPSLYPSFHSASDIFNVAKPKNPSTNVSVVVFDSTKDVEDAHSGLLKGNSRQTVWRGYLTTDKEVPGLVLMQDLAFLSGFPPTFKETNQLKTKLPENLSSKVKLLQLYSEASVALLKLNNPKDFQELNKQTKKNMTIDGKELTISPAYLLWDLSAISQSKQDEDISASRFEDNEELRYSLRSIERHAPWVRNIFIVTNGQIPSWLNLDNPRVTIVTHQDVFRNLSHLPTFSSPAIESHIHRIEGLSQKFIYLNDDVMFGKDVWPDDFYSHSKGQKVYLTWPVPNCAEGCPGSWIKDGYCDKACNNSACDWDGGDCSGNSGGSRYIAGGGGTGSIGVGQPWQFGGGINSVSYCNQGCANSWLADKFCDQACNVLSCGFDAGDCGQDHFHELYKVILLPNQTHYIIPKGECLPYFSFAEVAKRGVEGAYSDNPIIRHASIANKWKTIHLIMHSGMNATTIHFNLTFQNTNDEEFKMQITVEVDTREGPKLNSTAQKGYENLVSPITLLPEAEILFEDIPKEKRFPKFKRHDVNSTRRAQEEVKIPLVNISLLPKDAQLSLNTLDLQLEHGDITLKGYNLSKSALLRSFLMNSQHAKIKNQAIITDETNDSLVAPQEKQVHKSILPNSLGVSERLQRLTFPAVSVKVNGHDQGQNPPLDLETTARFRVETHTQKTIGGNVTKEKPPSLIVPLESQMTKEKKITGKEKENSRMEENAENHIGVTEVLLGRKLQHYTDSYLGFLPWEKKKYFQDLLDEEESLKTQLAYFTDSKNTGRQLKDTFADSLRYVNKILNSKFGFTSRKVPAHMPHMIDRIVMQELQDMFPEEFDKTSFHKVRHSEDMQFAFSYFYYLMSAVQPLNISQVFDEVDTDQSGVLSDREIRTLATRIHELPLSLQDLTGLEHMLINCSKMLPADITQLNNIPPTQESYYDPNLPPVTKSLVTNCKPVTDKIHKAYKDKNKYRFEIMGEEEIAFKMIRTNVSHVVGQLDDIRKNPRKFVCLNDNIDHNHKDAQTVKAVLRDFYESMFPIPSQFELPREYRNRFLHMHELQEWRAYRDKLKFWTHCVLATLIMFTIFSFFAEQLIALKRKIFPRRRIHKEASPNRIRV
UniProt Q12849: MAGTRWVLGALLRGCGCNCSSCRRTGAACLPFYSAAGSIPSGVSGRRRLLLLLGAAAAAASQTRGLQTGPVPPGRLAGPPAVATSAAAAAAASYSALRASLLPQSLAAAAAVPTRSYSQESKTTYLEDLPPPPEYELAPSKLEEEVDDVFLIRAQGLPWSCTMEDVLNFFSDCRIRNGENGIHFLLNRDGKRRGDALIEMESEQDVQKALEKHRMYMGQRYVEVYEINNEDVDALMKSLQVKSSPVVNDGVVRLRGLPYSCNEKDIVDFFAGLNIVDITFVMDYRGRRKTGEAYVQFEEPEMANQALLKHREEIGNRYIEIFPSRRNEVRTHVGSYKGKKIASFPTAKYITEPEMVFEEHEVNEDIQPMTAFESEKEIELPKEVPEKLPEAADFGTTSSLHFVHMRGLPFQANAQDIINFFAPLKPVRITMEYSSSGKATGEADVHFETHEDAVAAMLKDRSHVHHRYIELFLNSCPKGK
UniProt O60547: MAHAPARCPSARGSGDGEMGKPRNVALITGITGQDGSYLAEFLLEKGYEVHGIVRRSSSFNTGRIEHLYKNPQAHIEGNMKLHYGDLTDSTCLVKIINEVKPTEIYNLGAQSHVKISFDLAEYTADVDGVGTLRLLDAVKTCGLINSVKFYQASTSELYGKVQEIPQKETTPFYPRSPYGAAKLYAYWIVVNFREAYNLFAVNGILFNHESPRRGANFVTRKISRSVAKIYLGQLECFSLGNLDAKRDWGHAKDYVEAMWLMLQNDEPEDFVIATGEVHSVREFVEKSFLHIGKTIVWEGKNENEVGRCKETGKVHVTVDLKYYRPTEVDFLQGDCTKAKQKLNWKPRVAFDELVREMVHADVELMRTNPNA
UniProt Q8TBA6: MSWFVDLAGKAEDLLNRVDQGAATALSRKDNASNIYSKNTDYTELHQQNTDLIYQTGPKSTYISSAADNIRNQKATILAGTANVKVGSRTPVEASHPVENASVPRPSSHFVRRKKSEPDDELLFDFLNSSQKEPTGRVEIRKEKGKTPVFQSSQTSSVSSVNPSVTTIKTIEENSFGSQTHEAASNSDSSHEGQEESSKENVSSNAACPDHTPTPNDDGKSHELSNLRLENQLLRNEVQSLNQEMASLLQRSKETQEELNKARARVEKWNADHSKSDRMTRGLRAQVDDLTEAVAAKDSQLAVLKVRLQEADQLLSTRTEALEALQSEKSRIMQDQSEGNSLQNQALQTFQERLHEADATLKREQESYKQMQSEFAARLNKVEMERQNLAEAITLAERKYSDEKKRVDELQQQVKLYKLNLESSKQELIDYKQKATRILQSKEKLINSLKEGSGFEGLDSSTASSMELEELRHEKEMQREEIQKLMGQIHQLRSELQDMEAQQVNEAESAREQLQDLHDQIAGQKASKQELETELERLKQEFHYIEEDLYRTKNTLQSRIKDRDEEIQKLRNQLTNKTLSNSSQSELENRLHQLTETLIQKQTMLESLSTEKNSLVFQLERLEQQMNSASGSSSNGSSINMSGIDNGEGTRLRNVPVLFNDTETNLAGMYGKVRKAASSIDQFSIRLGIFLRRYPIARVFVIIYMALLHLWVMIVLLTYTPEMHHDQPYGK
UniProt Q96EK6: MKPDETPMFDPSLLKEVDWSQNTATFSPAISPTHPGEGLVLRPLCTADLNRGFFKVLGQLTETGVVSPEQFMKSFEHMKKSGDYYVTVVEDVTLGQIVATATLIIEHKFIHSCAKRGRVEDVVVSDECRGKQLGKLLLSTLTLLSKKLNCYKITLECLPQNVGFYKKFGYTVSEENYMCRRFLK
UniProt Q04760: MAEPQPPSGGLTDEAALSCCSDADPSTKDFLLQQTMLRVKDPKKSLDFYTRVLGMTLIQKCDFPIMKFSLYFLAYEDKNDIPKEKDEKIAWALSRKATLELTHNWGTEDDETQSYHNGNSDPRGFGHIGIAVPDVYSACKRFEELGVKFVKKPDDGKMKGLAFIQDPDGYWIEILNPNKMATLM

Columns and labels:
Assay in all cases: log2 fold change, soluble protein after heating vs DMSO (PISA); higher = thermal stabilisation; K562 cells, 10 uM, 30 min; active = over 0.2 and 3.5 SD of the protein, either way, in both replicates (recomputed)
[1] = compound: CN1CCN(CCOc2cc(OC3CCOCC3)c3c(Nc4c(Cl)ccc5c4OCO5)ncnc3c2)CC1 [saracatinib]
Method in brief: (§1)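 Soluble protein was defined as the supernatant after 21,000xg for 90 min. It came from K562 cells at 2×10^6 cells/mL given 10 μM compound for 30 min, heated in aliquots for 3 min across 48°C-58°C, pooled, and extracted in PBS with 0.5% NP-40 at 4°C, and was quantified by TMTpro 16plex LC-MS/MS with equalised channel sums. Thermal stability against control samples, from duplicates, is reported as log2 fold change.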

[2] = compound: CN1CCN(c2nc(C3=C(c4c[nH]c5ccccc45)C(=O)NC3=O)c3ccccc3n2)CC1 [sotrastaurin]
Method in brief: as §1

[3] = compound: CN1CC[C@H](c2c(O)cc(O)c3c(=O)cc(-c4ccccc4Cl)oc23)[C@H](O)C1 [alvocidib]
Method in brief: as §1

[4] = compound: CN1CCc2c(c3ccccc3n2Cc2ccc(C(=O)NO)cc2)C1 [Tubastatin A]
Method in brief: as §1

[5] = compound: CNC(=O)C1=CC=CC=C1NC2=NC(=NC=C2Cl)NC3=C(C=C(C=C3)N4CCOCC4)OC
Method in brief: as §1

[6] = compound: CNC(=O)c1ccc(Nc2ncc(C(F)(F)F)c(NCc3nccnc3N(C)S(C)(=O)=O)n2)cc1 [defactinib]
Method in brief: as §1

[7] = compound: CNCc1ccc(-c2[nH]c3cc(F)cc4c3c2CCNC4=O)cc1 [rucaparib]
Method in brief: as §1

[8] = compound: CNc1nc(-c2ccc3c(N)n[nH]c3c2)cc(N2C[C@@H](C(=O)NC3CCCCC3)CC[C@H]2C)n1
Method in brief: as §1

[9] = compound: COC(=O)N[C@@H](C)CNc1nccc(-c2cn(C(C)C)nc2-c2cc(Cl)cc(NS(C)(=O)=O)c2F)n1 [encorafenib]
Method in brief: as §1

[10] = compound: COC(=O)[C@H](CCSC)NC(=O)C1=C(C=C(C=C1)NC[C@H](CS)N)C2=CC=CC=C2
Method in brief: as §1

[11] = compound: COC1=CC=C(C=C1)CN2C=CC3=C2C=C(C=C3)C(=O)NO
Method in brief: as §1

[12] = compound: CON(C)C(=O)N1N=C(c2cc(F)ccc2F)S[C@@]1(CCCN)c1ccccc1 [filanesib]
Method in brief: as §1

[13] = compound: CO[C@H]1C[C@@H]2CC[C@@H](C)[C@@](O)(O2)C(=O)C(=O)N2CCCC[C@H]2C(=O)O[C@H]([C@H](C)C[C@@H]2CC[C@H](n3cnnn3)[C@H](OC)C2)CC(=O)[C@H](C)/C=C(\C)[C@@H](O)[C@@H](OC)C(=O)[C@H](C)C[C@H](C)/C=C/C=C/C=C/1C [zotarolimus]
Method in brief: as §1

[14] = compound: COc1cc(C(=O)O)ccc1NC(=O)[C@@H]1N[C@@H](CC(C)(C)C)[C@](C#N)(c2ccc(Cl)cc2F)[C@H]1c1cccc(Cl)c1F [idasanutlin]
Method in brief: as §1

[15] = compound: COc1cc(Nc2ncc3c(n2)-c2ccc(Cl)cc2C(c2c(F)cccc2OC)=NC3)ccc1C(=O)O [alisertib]
Method in brief: as §1

[16] = compound: COc1cc2nc(-c3cc(F)ccc3O)nc(N[C@@H]3CNC[C@H]3C(C)(C)O)c2cc1OC
Method in brief: as §1

[17] = compound: COc1cc2ncnc(Nc3ccc(F)c(Cl)c3)c2cc1OCCCN1CCOCC1 [gefitinib]
Method in brief: as §1

[18] = compound: COc1cccc2cc(-c3nc([C@H]4CC[C@H](C(=O)O)CC4)n4ncnc(N)c34)[nH]c12
Method in brief: as §1

[19] = compound: CS(=O)(=O)CCNCc1ccc(-c2ccc3ncnc(Nc4ccc(OCc5cccc(F)c5)c(Cl)c4)c3c2)o1 [lapatinib]
Method in brief: as §1

[20] = compound: CS(=O)(=O)N1CCN(Cc2cc3nc(-c4cccc5[nH]ncc45)nc(N4CCOCC4)c3s2)CC1 [pictilisib]
Method in brief: as §1

Measured: log2 fold change

GRWD1 (UniProt Q9BQ67)
inactive: [1] -0.155 | [2] -0.039 | [3] 0.19 | [4] 0.09 | [5] -0.018 | [6] 0.131 | [7] 0.283 | [8] 0.136 | [9] 0.109 | [10] -0.012 | [11] -0.054 | [12] 0.337 | [13] 0.046 | [14] 0.21 | [15] -0.113 | [16] -0.049 | [17] 0.089 | [18] -0.16 | [19] 0.096 | [20] -0.018

GNA11 (UniProt P29992)
inactive: [1] 0.001 | [2] 0 | [3] -0.082 | [4] 0.05 | [5] 0.025 | [6] -0.031 | [7] 0.007 | [8] 0.052 | [9] -0.04 | [10] -0.023 | [11] -0.044 | [12] 0.029 | [13] 0.007 | [14] -0.021 | [15] -0.044 | [16] 0.126 | [17] 0.063 | [18] -0.039 | [19] 0.013 | [20] 0.101

GLB1L2 (UniProt Q8IW92)
inactive: [1] 0.055 | [2] -0.008 | [3] 0.026 | [4] -0.021 | [5] 0.082 | [6] -0.05 | [7] 0.062 | [8] -0.044 | [9] 0.027 | [10] 0.002 | [11] 0.047 | [12] 0.036 | [13] -0.197 | [14] -0.04 | [15] -0.016 | [16] 0.038 | [17] -0.078 | [18] -0.046 | [19] -0.025 | [20] 0.134

GPATCH11 (UniProt Q8N954)
inactive: [1] -0.025 | [2] 0.035 | [3] -0.003 | [4] -0.02 | [5] 0 | [6] 0.062 | [7] -0.092 | [8] -0.03 | [9] 0.075 | [10] 0.023 | [11] 0.075 | [12] 0.042 | [13] -0.016 | [14] 0.031 | [15] -0.036 | [16] 0.08 | [17] -0.015 | [18] -0.012 | [19] -0.047 | [20] 0.029

GOLGA7 (UniProt Q7Z5G4)
inactive: [1] -0.046 | [2] -0.006 | [3] -0.067 | [4] 0.055 | [5] 0.029 | [6] -0.013 | [7] -0.026 | [8] 0.011 | [9] 0.07 | [10] -0.046 | [11] -0.056 | [12] 0.006 | [13] -0.066 | [14] -0.026 | [15] 0.013 | [16] -0.069 | [17] -0.003 | [18] 0.026 | [19] -0.052 | [20] 0.04

Quoted from the entries so far (2 entries):
GPATCH11 (UniProt Q8N954)
inactive: [1] -0.025 | [2] 0.035 | [3] -0.003 | [4] -0.02 | [5] 0 | [6] 0.062 | [7] -0.092 | [8] -0.03 | [9] 0.075 | [10] 0.023 | [11] 0.075 | [12] 0.042 | [13] -0.016 | [14] 0.031 | [15] -0.036 | [16] 0.08 | [17] -0.015 | [18] -0.012 | [19] -0.047 | [20] 0.029

GOLGA7 (UniProt Q7Z5G4)
inactive: [1] -0.046 | [2] -0.006 | [3] -0.067 | [4] 0.055 | [5] 0.029 | [6] -0.013 | [7] -0.026 | [8] 0.011 | [9] 0.07 | [10] -0.046 | [11] -0.056 | [12] 0.006 | [13] -0.066 | [14] -0.026 | [15] 0.013 | [16] -0.069 | [17] -0.003 | [18] 0.026 | [19] -0.052 | [20] 0.04

More results:

GP1BB isoform 2 (UniProt P13224)
inactive: [1] 0.002 | [2] 0 | [3] 0.056 | [4] 0.024 | [5] 0.019 | [6] -0.025 | [7] -0.016 | [8] -0.005 | [9] -0.024 | [10] -0.001 | [11] -0.047 | [12] -0.051 | [13] -0.058 | [14] 0.042 | [15] 0.001 | [16] -0.016 | [17] 0.019 | [18] -0.024 | [19] 0.047 | [20] 0.05

GRHPR (UniProt Q9UBQ7)
inactive: [1] 0.03 | [2] 0.046 | [3] -0.059 | [4] 0.004 | [5] -0.028 | [6] -0.049 | [7] -0.019 | [8] -0.021 | [9] -0.05 | [10] -0.048 | [11] -0.029 | [12] -0.032 | [13] 0.026 | [14] -0.091 | [15] -0.067 | [16] 0.055 | [17] 0.006 | [18] 0.08 | [19] -0.037 | [20] 0.14

GMPPB isoform 2 (UniProt Q9Y5P6)
inactive: [1] 0 | [2] -0.016 | [3] -0.023 | [4] -0.021 | [5] -0.05 | [6] -0.009 | [7] -0.079 | [8] 0.023 | [9] 0.012 | [10] -0.028 | [11] 0.016 | [12] -0.126 | [13] 0.008 | [14] -0.065 | [15] 0.097 | [16] 0.009 | [17] 0.02 | [18] 0.103 | [19] 0 | [20] -0.057

GPALPP1 (UniProt Q8IXQ4)
inactive: [1] 0.004 | [2] 0.004 | [3] 0.032 | [4] 0.015 | [5] -0.062 | [6] 0.084 | [7] -0.007 | [8] -0.026 | [9] -0.033 | [10] 0.067 | [11] -0.064 | [12] 0.017 | [13] -0.012 | [14] -0.029 | [15] 0 | [16] 0.061 | [17] -0.01 | [18] 0.044 | [19] 0.018 | [20] 0.005

GNPTAB (UniProt Q3T906)
inactive: [1] 0.031 | [2] 0.022 | [3] 0.075 | [4] -0.024 | [5] -0.058 | [6] 0.024 | [7] -0.099 | [8] 0.036 | [9] -0.023 | [10] 0.06 | [11] -0.093 | [12] 0.08 | [13] 0.001 | [14] 0.006 | [15] -0.103 | [16] 0.023 | [17] 0.049 | [18] -0.013 | [19] -0.014 | [20] 0.084

GRSF1 (UniProt Q12849)
inactive: [1] -0.106 | [2] -0.182 | [3] -0.045 | [4] 0.156 | [5] -0.09 | [6] 0.003 | [7] 0.312 | [8] 0.051 | [9] 0.12 | [10] 0.021 | [11] 0 | [12] -0.11 | [13] 0.086 | [14] 0.28 | [15] 0.057 | [16] -0.194 | [17] -0.049 | [18] -0.014 | [19] 0.052 | [20] -0.06

GMDS (UniProt O60547)
inactive: [1] 0.032 | [2] 0.07 | [3] -0.005 | [4] -0.027 | [5] -0.055 | [6] -0.018 | [7] -0.026 | [8] -0.021 | [9] -0.007 | [10] -0.008 | [11] 0.014 | [12] -0.021 | [13] 0.015 | [14] -0.057 | [15] -0.046 | [16] 0.044 | [17] 0.003 | [18] 0.095 | [19] -0.034 | [20] 0.058

GOLGA5 (UniProt Q8TBA6)
inactive: [1] 0.015 | [2] 0.048 | [3] 0.018 | [4] -0.017 | [5] 0.06 | [6] -0.094 | [7] 0.01 | [8] -0.098 | [9] -0.036 | [10] 0.01 | [11] 0 | [12] 0.01 | [13] -0.014 | [14] -0.026 | [15] 0.047 | [16] 0.036 | [17] 0.03 | [18] 0.035 | [19] 0.001 | [20] 0.028

GPATCH8 (UniProt Q9UKJ3)
inactive: [1] 0.194 | [2] 0.051 | [3] 0.003 | [4] 0.012 | [5] -0.188 | [6] -0.022 | [7] -0.05 | [8] -0.093 | [9] -0.002 | [10] 0.028 | [11] 0.067 | [12] 0.067 | [13] -0.025 | [14] 0.008 | [15] -0.099 | [16] 0.146 | [17] 0.023 | [18] 0.059 | [19] 0.03 | [20] 0.003

GNPNAT1 (UniProt Q96EK6)
inactive: [1] 0.036 | [2] 0.052 | [3] -0.033 | [4] -0.019 | [5] -0.044 | [6] -0.05 | [7] -0.023 | [8] -0.014 | [9] -0.001 | [10] 0.051 | [11] -0.016 | [12] -0.009 | [13] -0.023 | [14] -0.043 | [15] -0.052 | [16] 0.017 | [17] -0.051 | [18] 0.074 | [19] -0.031 | [20] -0.017

GLO1 (UniProt Q04760)
inactive: [1] 0.032 | [2] -0.003 | [3] 0.028 | [4] -0.017 | [5] -0.034 | [6] 0.005 | [7] -0.092 | [8] -0.03 | [9] -0.01 | [10] 0.011 | [11] 0.068 | [12] -0.053 | [13] -0.022 | [14] -0.027 | [15] -0.1 | [16] 0.024 | [17] 0.028 | [18] 0.011 | [19] 0.007 | [20] -0.003
